Some results were stated once for a whole list of compounds, not compound by compound.
Test system: gut microbiome
Test: gut microbiome 16S rRNA sequencing of stool of infected, treated mice

| SMILES | Enterococcaceae bloom, relative abundance (oral 100 mg/kg every 12 hours for 5 days) | Enterococcaceae bloom, relative abundance (subcutaneous 156 mg/kg every 12 hours for 5 days) |
| --- | --- | --- |
| CC1(C)S[C@@H]2[C@H](NC(=O)[C@H](N)c3ccc(O)cc3)C(=O)N2[C@H]1C(=O)O [Amox, amoxicillin] | up to 98% | – |
| CO/N=C(\C(=O)N[C@@H]1C(=O)N2C(C(=O)O)=C(CSc3nc(=O)c(=O)[nH]n3C)CS[C@H]12)c1csc(N)n1 [Ceftriaxone] | – | up to 98% |
